# Laboratory results as given in PubChem BioAssay AID1259415 (National Center for Advancing Translational Sciences (NCATS), 2018).
# About 18,000 (4.4%) of roughly 410,000 compounds were called active. This list was built around the results that the source calls inconclusive (neither active nor inactive); the mix of calls is not that of the screen. Cut-off read from the data, not from the text of the source: active = activity change below about -60%; inconclusive = no clear call, values can overlap the other calls; inactive = above about -39%.
# Test: qHTS Assay for inhibitors of the human cytomegalovirus (HCMV)
# Details: HFF cells, HCMV-luciferase reporter, 72 h; at 57.5 µM; hits give low values
# Summary of the method: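 After 16 h attachment at 37C, HFF cells received test compound and HCMV-luciferase (1 PFU/cell); reporter luminescence read 72 h later, data normalized against buffer-only and known inhibitor Salinomycin.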
# % is set by controls: 0 for no effect and ±100 for the full control effect.
row,Structure (SMILES),"activity change, negative = inhibition"
1,CCOC(=O)C1=CC[C@@H](c2cccc(Br)c2)N(S(=O)(=O)c2ccc(F)cc2)[C@H]1c1cccc(Cl)c1,active: -73.5%
2,CCCCOc1ccccc1NC(=O)Cn1c(-c2nonc2N)nc2ccccc21,active: -78.1%
3,Cn1ncc(N=Cc2ccccc2)c1C(N)=O,inactive: -23.8%
4,O=C(NCC1CCCCC1)C1(CC2CC(c3ccc(Cl)cc3)=NO2)CCNCC1 (stereo unspecified),inactive: 6.41%
5,COc1ccc2[nH]c(C)c(CCNC(=S)Nc3ccccc3OC)c2c1,inactive: -16.1%
6,NS(=O)(=O)c1ccc(NC(=O)Nc2cccc3ccccc23)cc1,inactive: 4.38%
7,CC(OC(=O)c1cccnc1)C(=O)Nc1ccc2c(c1)OCO2 (stereo unspecified),inconclusive: -40.9%
8,CCc1ccccc1Nc1nc2ccccc2n1C,inconclusive: -47.3%
9,CCOc1ccc(-c2nonc2NC(=O)c2oc3cc(Br)ccc3c2C)cc1,inconclusive: -51.2%
10,O=C(C[C@@H]1C/C=C\CC[C@H](Cc2ccc(F)cc2)C(=O)OC[C@@H]2CCCN2C1=O)N[C@H](CO)Cc1ccccc1,inconclusive: -41.8%
11,CCCOc1ccc(F)cc1-c1cc(C(=O)Nc2ccc(C(C)C)cc2)[nH]n1,inconclusive: -46.3%
12,Cc1nc2ccc(NC(=O)c3ccc(Br)o3)cc2s1,inactive: 42%
13,C=CCNC(=O)CC(=O)N/N=C/c1ccc(C(=O)OC)cc1,active: -66.6%
14,CN(C(=O)CCCN1C(=O)c2cccc3cccc(c23)C1=O)c1ccccc1,active: -61.6%
15,COc1ccc(C(=O)Nc2ccc(-c3cc(C(F)(F)F)nn3-c3ccccc3)cc2)cc1OC,inconclusive: -49.1%
16,CCOC(=O)c1c(N)sc2c1CCN(Cc1ccccc1)C2,inactive: -22.9%
17,Cc1ccc(C)c2[nH]c(=O)c(CN(Cc3ccco3)C(=S)NCC3CCCO3)cc12 (stereo unspecified),inconclusive: -47.4%
18,COc1cc(C(C(=O)NC2CCCC2)N(C(=O)Cc2cccs2)C2CC2)cc(OC)c1OC (stereo unspecified),inconclusive: -42.5%
19,Cc1oc(-c2cccc(Cl)c2)nc1CSCC(=O)O,inconclusive: -51.7%

# 4 entries from above, as tab-separated lines:
row	Structure (SMILES)	activity change, negative = inhibition
16	CCOC(=O)c1c(N)sc2c1CCN(Cc1ccccc1)C2	inactive: -22.9%
17	Cc1ccc(C)c2[nH]c(=O)c(CN(Cc3ccco3)C(=S)NCC3CCCO3)cc12 (stereo unspecified)	inconclusive: -47.4%
18	COc1cc(C(C(=O)NC2CCCC2)N(C(=O)Cc2cccs2)C2CC2)cc(OC)c1OC (stereo unspecified)	inconclusive: -42.5%
19	Cc1oc(-c2cccc(Cl)c2)nc1CSCC(=O)O	inconclusive: -51.7%

# Later entries

row,Structure (SMILES),"activity change, negative = inhibition"
1,CCC(=O)Nc1ccc(C)cc1-c1nc2ccccc2n(Cc2ccccc2)c1=O,inactive: 13.6%
2,CCN(C(=O)c1cc2c(Cl)nc3ccc(C)cc3c2s1)c1cc(OC)ccc1OC,inactive: -35.5%
3,Cc1cccc(Cn2c(NCC(C)O)nc3c2c(=O)n(C)c(=O)n3C)c1 (stereo unspecified),inconclusive: -49.1%
4,CC1CCc2cc(F)ccc2N1C(=O)CSc1nnc2c(n1)[nH]c1ccc(F)cc12 (stereo unspecified),inconclusive: -47.4%
5,CCCCN(CCCC)c1nc(-c2ccccc2)nc2ccccc12,inactive: -21.2%
6,CCN(C[C@H]1N[C@@](Cc2ccccc2)(C(=O)OC)[C@H]2C(=O)N(Cc3ccccc3)C(=O)[C@@H]12)C(=O)c1ccccc1,inconclusive: -44.4%
7,CCCn1c(=O)c2ccccc2n2c(SC(C)C(N)=O)nnc12 (stereo unspecified),inconclusive: -45.5%
8,Cc1ccc(C(=O)NC2CCN(S(=O)(=O)c3ccccc3F)CC2)cc1,inconclusive: -43.9%
9,O=[N+]([O-])c1cccc(/C=N/Nc2ccccn2)c1,inconclusive: -44.9%
10,CNc1cc(C)nc(-n2nc(C)cc2C)n1,inconclusive: -40.8%
11,CC(C)(C)n1cnnc1Sc1ccc([N+](=O)[O-])cn1,inconclusive: -43.4%
12,CNC(=O)c1csc(-c2ccc(C)cc2)n1,inactive: 64.2%
13,CCc1ccc(OCC(=O)Nc2ncc3c(n2)CC(C)(C)CC3=O)cc1,inactive: 3.97%
14,Cc1cc(C)cc(N(CCC#N)C(=O)CSc2ncnc3sccc23)c1,inconclusive: -48%
15,COc1cc(CNCCSc2nnnn2C)ccc1OCc1c(F)cccc1Cl,active: -60.3%
16,Cc1cccc(C(=O)OCC(=O)NC2CCCCCCC2)c1,active: -63.8%
17,Cc1ccc(CSc2ncnc3onc(C)c23)cc1,inconclusive: -55.3%
18,Cc1ccc2c(c1)nc(SCC(O)c1ccc(Br)cc1)n2C (stereo unspecified),inconclusive: -41%
19,COc1ccc(N2CCN(Cc3nc4c(c(=O)[nH]c(=O)n4C)n3Cc3ccccc3)CC2)cc1,inactive: -14%

row,Structure (SMILES),"activity change, negative = inhibition"
1,Cc1cc(C)c(S(=O)(=O)NCCCn2ccnc2)c(C)c1,inconclusive: -40.9%
2,COc1cc(OC)c(NC(=O)c2cc(S(=O)(=O)N3CCCC3)cn2C)cc1Cl,inconclusive: -43%
3,Cc1ccc(-c2nn(-c3ccccc3)cc2C(=O)Nc2cccc(S(=O)(=O)NC3=NCCC3)c2)cc1,inactive: 19%
4,C=CCN(c1ccccc1)S(=O)(=O)c1cccc(C(=O)NC2CCC(O)CC2)c1 (stereo unspecified),inconclusive: -43%
5,CCOc1cccc(NC(=O)C2CCCN(S(=O)(=O)c3ccc(OC)cc3)C2)c1 (stereo unspecified),inconclusive: -40.7%
6,CN(c1ccccc1)c1ccc(/C=N/N2CCOCC2)cc1,inactive: 7.38%
7,COc1ccc(-c2c(C)oc3c(CN4CCN(C)CC4)c(O)ccc3c2=O)cc1,active: -62.5%
8,COc1cccc(CNC(=O)Cc2ccc(-c3ccccc3)cc2)c1,inconclusive: -42.5%
9,Cc1ccc(C(=O)c2ccccc2C(=O)OCC(=O)N2CC(C)CC(C)C2)cc1 (stereo unspecified),inactive: -37.2%
10,Cc1cc(C)nc(NC(=O)CSc2nccc(C)n2)n1,inconclusive: -52.2%
11,CCOc1ccc(OCCCC(=O)ON=C(N)c2ccccc2C)cc1,inconclusive: -48.4%
12,Cc1ccc(NC(=O)C2CCN(S(=O)(=O)c3ccc(N4CCCC4=O)cc3)CC2)cc1Cl,active: -85.6%
13,CN(Cc1ccccc1)c1nc2c(c(=O)n(C)c(=O)n2C)n1CCCc1ccccc1,inconclusive: -49.7%
14,COC(=O)c1ccc(OC)c(Cn2c(=O)n(-c3ccc(C)cc3)c(=O)c3c2cnn3C)c1,inactive: 18.5%
15,COc1ccc2cc(-c3[nH]ncc3CN3CCCCO3)ccc2c1,inactive: -4.84%
16,Cc1ccc(OCC(=O)N2CCN(Cc3ccc([N+](=O)[O-])cc3)CC2)cc1,inconclusive: -59.8%
17,CCN(CC)CCN(C(=O)c1c(F)cccc1F)c1nc2cc(C)cc(C)c2s1,inactive: -21.8%
18,Cc1ccc(Nc2ccc(NCc3ccccc3)nn2)cc1C,inactive: -3.56%
